Drawing on the supplement of paper PMC10849652, this text covers log2 fold change for 39 targets.

Sequences of proteins named here, by UniProt entry; tags and fusion partners are left off. A change or cut given only in a name is not applied to a line headed by its entry.
UniProt Q96BJ3: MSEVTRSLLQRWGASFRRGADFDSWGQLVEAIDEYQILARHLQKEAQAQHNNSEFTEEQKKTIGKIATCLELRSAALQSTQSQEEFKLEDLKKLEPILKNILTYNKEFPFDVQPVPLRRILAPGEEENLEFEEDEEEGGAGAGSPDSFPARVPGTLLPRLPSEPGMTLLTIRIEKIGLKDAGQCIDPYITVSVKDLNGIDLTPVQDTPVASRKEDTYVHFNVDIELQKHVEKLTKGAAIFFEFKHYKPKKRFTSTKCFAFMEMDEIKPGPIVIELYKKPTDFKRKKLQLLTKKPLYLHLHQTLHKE
UniProt Q9UKV5, whole entry, looked up: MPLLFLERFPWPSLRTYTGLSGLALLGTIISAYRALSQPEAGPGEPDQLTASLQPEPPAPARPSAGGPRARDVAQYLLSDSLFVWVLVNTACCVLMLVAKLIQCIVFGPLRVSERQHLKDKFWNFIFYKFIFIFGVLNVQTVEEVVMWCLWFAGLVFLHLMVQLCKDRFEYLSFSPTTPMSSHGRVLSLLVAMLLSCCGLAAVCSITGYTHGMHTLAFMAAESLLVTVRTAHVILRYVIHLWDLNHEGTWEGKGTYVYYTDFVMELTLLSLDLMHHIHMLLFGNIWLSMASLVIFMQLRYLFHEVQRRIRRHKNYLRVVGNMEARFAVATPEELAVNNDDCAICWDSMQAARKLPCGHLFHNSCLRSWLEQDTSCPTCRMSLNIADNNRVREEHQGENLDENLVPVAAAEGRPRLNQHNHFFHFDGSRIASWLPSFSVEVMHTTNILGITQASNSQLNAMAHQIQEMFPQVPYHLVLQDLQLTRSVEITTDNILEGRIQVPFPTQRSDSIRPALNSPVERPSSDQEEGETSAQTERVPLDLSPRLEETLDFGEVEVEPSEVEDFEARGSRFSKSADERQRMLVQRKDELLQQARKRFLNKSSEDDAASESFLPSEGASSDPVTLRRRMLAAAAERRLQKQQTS
UniProt Q99943: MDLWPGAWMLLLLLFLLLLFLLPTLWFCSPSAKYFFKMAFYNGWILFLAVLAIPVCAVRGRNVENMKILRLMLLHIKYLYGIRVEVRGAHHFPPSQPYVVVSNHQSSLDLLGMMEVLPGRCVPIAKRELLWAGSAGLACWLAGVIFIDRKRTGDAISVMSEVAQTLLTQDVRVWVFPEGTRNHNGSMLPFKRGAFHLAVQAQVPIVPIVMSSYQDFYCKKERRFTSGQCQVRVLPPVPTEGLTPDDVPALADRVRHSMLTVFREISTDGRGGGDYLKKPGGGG
UniProt Q9NYG5, whole entry, looked up: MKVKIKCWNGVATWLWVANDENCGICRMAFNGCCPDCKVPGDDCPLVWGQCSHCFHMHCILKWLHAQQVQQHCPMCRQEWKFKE
UniProt Q96HN2, whole entry, looked up: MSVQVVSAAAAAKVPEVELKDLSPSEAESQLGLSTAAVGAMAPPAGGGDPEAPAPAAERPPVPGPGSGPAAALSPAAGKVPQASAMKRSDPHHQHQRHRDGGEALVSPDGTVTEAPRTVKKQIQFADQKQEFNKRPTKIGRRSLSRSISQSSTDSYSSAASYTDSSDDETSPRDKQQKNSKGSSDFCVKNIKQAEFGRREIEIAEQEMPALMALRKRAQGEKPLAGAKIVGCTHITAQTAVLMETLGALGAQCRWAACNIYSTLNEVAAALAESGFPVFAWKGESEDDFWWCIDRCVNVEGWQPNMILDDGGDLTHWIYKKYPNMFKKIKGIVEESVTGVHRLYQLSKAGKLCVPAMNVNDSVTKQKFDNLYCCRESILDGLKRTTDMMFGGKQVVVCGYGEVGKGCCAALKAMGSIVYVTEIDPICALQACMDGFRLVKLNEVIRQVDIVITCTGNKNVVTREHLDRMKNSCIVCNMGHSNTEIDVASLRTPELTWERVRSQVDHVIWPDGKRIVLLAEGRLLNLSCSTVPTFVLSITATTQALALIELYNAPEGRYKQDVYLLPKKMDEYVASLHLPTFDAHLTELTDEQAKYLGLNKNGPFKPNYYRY
UniProt Q9BVK2: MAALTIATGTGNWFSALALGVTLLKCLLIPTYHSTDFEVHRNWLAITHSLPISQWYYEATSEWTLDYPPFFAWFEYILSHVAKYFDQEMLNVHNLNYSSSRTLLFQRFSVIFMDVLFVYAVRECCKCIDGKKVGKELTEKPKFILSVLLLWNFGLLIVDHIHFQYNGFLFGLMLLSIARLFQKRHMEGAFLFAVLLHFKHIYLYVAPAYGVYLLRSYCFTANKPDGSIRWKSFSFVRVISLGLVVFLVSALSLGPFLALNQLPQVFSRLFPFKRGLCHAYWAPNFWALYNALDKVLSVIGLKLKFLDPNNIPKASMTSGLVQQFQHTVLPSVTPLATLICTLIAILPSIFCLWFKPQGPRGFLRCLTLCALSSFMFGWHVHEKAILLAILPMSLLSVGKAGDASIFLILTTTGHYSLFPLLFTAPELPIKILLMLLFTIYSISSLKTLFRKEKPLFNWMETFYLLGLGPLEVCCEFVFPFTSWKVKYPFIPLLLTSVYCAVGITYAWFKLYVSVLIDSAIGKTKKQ
UniProt P00352: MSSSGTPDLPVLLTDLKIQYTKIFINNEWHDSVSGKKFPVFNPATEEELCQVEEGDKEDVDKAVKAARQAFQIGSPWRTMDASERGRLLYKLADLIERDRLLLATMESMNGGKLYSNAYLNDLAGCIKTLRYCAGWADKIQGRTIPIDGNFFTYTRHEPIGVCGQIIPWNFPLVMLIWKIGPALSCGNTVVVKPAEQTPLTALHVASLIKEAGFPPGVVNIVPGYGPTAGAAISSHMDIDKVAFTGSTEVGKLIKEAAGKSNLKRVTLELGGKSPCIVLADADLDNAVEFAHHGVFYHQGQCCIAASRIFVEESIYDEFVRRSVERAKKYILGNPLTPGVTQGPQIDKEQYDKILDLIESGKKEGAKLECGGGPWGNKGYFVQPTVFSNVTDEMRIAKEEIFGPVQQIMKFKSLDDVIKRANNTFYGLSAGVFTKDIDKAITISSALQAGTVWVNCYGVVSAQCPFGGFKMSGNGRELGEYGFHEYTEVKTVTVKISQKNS
UniProt Q5I7T1: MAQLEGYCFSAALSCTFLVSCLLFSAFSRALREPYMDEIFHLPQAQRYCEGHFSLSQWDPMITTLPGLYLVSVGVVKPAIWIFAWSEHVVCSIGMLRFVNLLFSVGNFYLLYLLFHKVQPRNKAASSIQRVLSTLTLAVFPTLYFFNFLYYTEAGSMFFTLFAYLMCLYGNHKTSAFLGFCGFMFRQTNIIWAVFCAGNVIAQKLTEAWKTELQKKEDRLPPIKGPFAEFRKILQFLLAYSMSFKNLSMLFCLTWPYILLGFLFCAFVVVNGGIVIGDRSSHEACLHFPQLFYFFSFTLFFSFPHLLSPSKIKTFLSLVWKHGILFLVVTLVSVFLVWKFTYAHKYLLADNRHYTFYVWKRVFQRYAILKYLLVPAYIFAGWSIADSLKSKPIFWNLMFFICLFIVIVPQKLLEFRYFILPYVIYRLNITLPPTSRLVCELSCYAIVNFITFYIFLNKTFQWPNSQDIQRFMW
UniProt P31751: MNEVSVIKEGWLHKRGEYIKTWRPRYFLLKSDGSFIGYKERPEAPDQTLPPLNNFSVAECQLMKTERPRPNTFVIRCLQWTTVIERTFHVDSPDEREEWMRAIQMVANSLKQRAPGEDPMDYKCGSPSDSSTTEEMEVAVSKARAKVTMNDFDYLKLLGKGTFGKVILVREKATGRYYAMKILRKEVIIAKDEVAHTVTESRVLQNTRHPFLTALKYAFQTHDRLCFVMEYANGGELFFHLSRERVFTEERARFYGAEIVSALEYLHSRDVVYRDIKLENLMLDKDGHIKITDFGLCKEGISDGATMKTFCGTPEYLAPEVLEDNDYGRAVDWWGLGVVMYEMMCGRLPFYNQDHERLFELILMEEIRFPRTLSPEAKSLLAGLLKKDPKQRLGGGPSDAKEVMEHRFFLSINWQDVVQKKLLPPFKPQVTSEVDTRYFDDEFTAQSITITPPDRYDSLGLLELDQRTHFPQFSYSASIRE
UniProt Q2TAA5: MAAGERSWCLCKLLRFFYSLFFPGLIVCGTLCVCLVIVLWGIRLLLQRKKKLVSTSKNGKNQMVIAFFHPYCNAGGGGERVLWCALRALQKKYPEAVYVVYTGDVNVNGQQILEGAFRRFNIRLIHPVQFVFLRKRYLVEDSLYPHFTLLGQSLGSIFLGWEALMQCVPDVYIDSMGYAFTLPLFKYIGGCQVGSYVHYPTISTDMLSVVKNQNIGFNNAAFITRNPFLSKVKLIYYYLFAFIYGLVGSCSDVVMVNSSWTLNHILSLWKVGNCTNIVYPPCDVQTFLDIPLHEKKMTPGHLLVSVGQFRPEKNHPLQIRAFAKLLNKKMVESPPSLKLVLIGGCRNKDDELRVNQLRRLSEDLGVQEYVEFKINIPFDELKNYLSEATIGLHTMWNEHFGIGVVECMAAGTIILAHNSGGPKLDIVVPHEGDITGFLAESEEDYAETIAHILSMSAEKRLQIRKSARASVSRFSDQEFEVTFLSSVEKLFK
UniProt O94788: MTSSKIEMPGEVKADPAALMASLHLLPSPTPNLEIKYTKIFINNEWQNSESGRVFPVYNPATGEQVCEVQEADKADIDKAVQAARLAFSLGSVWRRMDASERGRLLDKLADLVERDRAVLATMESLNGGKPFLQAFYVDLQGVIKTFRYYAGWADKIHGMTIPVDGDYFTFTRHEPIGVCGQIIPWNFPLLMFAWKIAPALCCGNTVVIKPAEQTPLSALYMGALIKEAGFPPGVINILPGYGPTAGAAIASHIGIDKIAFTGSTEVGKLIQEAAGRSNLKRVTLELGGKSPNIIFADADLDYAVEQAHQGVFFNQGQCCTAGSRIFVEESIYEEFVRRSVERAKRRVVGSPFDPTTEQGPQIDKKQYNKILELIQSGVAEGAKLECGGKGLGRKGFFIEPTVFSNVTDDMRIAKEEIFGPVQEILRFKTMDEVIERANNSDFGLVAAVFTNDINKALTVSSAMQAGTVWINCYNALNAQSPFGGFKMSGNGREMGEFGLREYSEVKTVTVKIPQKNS
UniProt Q92667: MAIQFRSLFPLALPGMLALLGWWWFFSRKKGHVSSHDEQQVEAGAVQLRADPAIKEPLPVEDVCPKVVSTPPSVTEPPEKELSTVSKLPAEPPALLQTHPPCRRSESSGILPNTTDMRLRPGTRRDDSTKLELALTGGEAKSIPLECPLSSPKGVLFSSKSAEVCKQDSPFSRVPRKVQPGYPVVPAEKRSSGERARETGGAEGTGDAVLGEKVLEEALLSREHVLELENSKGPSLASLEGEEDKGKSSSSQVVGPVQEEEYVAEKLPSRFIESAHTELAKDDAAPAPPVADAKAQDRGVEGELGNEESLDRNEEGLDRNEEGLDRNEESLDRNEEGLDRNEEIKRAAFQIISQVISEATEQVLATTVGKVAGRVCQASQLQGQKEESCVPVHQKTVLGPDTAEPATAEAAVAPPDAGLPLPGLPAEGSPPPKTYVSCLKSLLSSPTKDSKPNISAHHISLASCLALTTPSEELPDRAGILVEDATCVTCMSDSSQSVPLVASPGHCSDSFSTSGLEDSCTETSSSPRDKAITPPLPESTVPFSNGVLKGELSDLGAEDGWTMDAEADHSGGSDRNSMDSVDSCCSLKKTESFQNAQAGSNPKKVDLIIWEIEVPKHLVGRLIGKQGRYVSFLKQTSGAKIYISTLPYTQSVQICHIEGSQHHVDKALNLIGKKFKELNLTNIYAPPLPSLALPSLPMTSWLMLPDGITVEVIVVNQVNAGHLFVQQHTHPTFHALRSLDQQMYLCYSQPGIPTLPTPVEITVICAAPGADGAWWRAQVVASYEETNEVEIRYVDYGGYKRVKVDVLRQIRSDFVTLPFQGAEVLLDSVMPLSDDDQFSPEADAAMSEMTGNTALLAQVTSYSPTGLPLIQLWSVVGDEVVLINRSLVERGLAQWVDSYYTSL
UniProt Q9UIJ7: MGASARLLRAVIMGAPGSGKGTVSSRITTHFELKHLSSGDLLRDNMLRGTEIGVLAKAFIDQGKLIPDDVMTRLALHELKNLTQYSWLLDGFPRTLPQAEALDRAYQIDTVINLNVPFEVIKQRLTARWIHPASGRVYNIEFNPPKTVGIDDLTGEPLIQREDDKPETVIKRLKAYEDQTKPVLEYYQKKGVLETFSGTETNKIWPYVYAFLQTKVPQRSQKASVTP
UniProt P30837: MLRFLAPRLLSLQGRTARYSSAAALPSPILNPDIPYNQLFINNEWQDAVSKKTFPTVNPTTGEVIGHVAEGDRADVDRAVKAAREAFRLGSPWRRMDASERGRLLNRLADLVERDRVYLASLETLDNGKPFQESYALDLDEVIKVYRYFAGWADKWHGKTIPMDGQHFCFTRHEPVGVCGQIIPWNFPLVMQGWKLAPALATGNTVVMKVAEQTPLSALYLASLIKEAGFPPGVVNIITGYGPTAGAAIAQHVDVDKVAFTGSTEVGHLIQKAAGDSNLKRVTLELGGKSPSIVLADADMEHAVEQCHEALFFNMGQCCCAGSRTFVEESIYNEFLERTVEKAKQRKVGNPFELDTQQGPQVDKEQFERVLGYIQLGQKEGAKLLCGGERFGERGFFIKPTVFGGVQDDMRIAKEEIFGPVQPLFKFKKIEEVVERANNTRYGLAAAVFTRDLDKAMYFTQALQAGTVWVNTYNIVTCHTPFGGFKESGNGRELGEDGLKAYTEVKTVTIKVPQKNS

This is one part of the list.

Compound in one assay: C1=CC=C(C=C1)[C@H](COC2=CC3=C(C=C2)NC(=O)N3)NC(=O)C4=CC=CN(C4=O)CC5=CC(=C(C=C5)F)F
Kind of assay: log2 fold change, soluble protein after heating vs DMSO (PISA); higher = thermal stabilisation; K562 cells, 10 uM, 30 min; active = over 0.2 and 3.5 SD of the protein, either way, in both replicates (recomputed). The essentials: (§1)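 K562 cells (2×10^6 cells/mL) were treated with 10 μM compound for 30 min, and aliquots were heated for 3 min over 48°C-58°C. Pooled aliquots were extracted in PBS with 0.5% NP-40 at 4°C, and the supernatant after 21,000xg for 90 min was measured by TMTpro 16plex LC-MS/MS with channel sums equalised. Reported thermal stability, relative to control samples and from duplicates, is a log2 fold change.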
Consider AGFG1 isoform 4 (UniProt P52594), for which the log2 fold change is inactive: 0.021.
Still for that read-out and setting: for AGO3 (UniProt Q9H9G7) the value was inactive: 0.04; for AIDA (UniProt Q96BJ3), inactive: -0.033; for AKAP8L (UniProt Q9ULX6), inactive: -0.011.
For AHCY (UniProt P23526), the log2 fold change was inactive: 0.007.
The same measure, in the same setting: to AMFR (UniProt Q9UKV5) belongs inactive: -0.043; to ALDH5A1 isoform 2 (UniProt P51649), inactive: 0.025.
For AHNAK (UniProt Q09666), the log2 fold change is inactive: 0.039.
Same read-out and setting: for AIP (UniProt O00170) the value was inactive: -0.031.
For the target AKT1 (UniProt P31749), the log2 fold change was inactive: -0.068.
AKR1B1 (UniProt P15121): the log2 fold change is inactive: -0.016.
Turning to AGPAT1 (UniProt Q99943), the log2 fold change is inactive: -0.006.
On the same count and under the same terms, to AMBRA1 isoform 5 (UniProt Q9C0C7) belongs inactive: -0.133; to ANAPC11 (UniProt Q9NYG5), inactive: 0.04.
The same measure, in the same setting: to ADD3 (UniProt Q9UEY8) belongs inactive: 0.019.
Same read-out and setting: to AHCYL2 (UniProt Q96HN2) belongs inactive: -0.005; to ALG5 (UniProt Q9Y673), inactive: -0.037.
With ALDH9A1 (UniProt P49189), the log2 fold change is inactive: 0.059.
For ALG8 (UniProt Q9BVK2), the log2 fold change was inactive: 0.063.
On to ALDH4A1 (UniProt P30038), for which the log2 fold change was inactive: 0.006.
Same read-out and setting: to AGO4 (UniProt Q9HCK5) belongs inactive: 0.028.
Same read-out and setting: to AMPD2 (UniProt Q01433) belongs inactive: 0.002.
Same read-out and setting: to ALDH1A1 (UniProt P00352) belongs inactive: 0.034.
With AGK (UniProt Q53H12), the log2 fold change was inactive: -0.019.
On the same count and under the same terms, for ALKBH2 (UniProt Q6NS38) the value was inactive: 0.02; for ALG10B (UniProt Q5I7T1), inactive: -0.115; for AKT2 (UniProt P31751), inactive: -0.124.
Consider ADD2 (UniProt P35612), for which the log2 fold change is inactive: 0.005.
AKAP12 (UniProt Q02952): the log2 fold change is inactive: 0.078.
For AKR1C2 (UniProt P52895), the log2 fold change was inactive: 0.
Regarding ALG11 (UniProt Q2TAA5), the log2 fold change was inactive: 0.001.
Same read-out and setting: to AIFM1 (UniProt O95831) belongs inactive: 0.011; to ALKBH4 (UniProt Q9NXW9), inactive: 0.023.
ALDH1A2 (UniProt O94788): the log2 fold change was inactive: 0.01.
For the target AKAP1 (UniProt Q92667), the log2 fold change is inactive: 0.022.
Still for that read-out and setting: for ADSS1 (UniProt Q8N142) the value was inactive: -0.004; for AK3 (UniProt Q9UIJ7), inactive: 0.005.
The same measure, in the same setting: to ALDH1B1 (UniProt P30837) belongs inactive: 0.037; to AKR1D1 (UniProt P51857), inactive: 0.186.

Compound in a further assay: CC1=C(SC2=C1C(=N[C@H](C3=NN=C(N32)C)CC(=O)N)C4=CC=C(C=C4)Cl)C
The description is as above. The essentials:
as §1
Consider AGFG1 isoform 4 (UniProt P52594), for which the log2 fold change was inactive: 0.05.
Same read-out and setting: for AGO3 (UniProt Q9H9G7) the value was inactive: -0.086; for AIDA (UniProt Q96BJ3), inactive: 0.014.
Same read-out and setting: for AKAP8L (UniProt Q9ULX6) the value was inactive: -0.186.
Still for that read-out and setting: for AHCY (UniProt P23526) the value was inactive: 0.019; for AMFR (UniProt Q9UKV5), inactive: -0.004; for ALDH5A1 isoform 2 (UniProt P51649), inactive: 0.009.
As to AHNAK (UniProt Q09666), the log2 fold change is inactive: -0.015.
Regarding AIP (UniProt O00170), the log2 fold change is inactive: 0.078.
As to AKT1 (UniProt P31749), the log2 fold change is inactive: 0.018.
Still for that read-out and setting: for AKR1B1 (UniProt P15121) the value was inactive: 0.087; for AGPAT1 (UniProt Q99943), inactive: 0.075.
The same measure, in the same setting: to AMBRA1 isoform 5 (UniProt Q9C0C7) belongs inactive: -0.051; to ANAPC11 (UniProt Q9NYG5), inactive: 0.032; to ADD3 (UniProt Q9UEY8), inactive: 0.034.
On the same count and under the same terms, for AHCYL2 (UniProt Q96HN2) the value was inactive: -0.004; for ALG5 (UniProt Q9Y673), inactive: 0.1; for ALDH9A1 (UniProt P49189), inactive: -0.193.
For the target ALG8 (UniProt Q9BVK2), the log2 fold change was inactive: 0.093.
Take ALDH4A1 (UniProt P30038): the log2 fold change is inactive: 0.047.
AGO4 (UniProt Q9HCK5): the log2 fold change is inactive: -0.127.
The same measure, in the same setting: to AMPD2 (UniProt Q01433) belongs inactive: 0.016; to ALDH1A1 (UniProt P00352), inactive: 0.019.
As to AGK (UniProt Q53H12), the log2 fold change is inactive: -0.004.
The same measure, in the same setting: to ALKBH2 (UniProt Q6NS38) belongs inactive: -0.091; to ALG10B (UniProt Q5I7T1), inactive: 0.085.
On the same count and under the same terms, to AKT2 (UniProt P31751) belongs inactive: 0.055.
The same measure, in the same setting: for ADD2 (UniProt P35612) the value was inactive: 0.044.
As for AKAP12 (UniProt Q02952), the log2 fold change is inactive: 0.028.
Still for that read-out and setting: for AKR1C2 (UniProt P52895) the value was inactive: -0.04; for ALG11 (UniProt Q2TAA5), inactive: 0.085; for AIFM1 (UniProt O95831), inactive: 0.015.
On the same count and under the same terms, for ALKBH4 (UniProt Q9NXW9) the value was inactive: -0.063; for ALDH1A2 (UniProt O94788), inactive: 0.034.
As to AKAP1 (UniProt Q92667), the log2 fold change was inactive: -0.005.
With ADSS1 (UniProt Q8N142), the log2 fold change is inactive: 0.076.
The same measure, in the same setting: to AK3 (UniProt Q9UIJ7) belongs inactive: 0.036; to ALDH1B1 (UniProt P30837), inactive: 0.064; to AKR1D1 (UniProt P51857), inactive: -0.049.
